This is an account of results in the supplement of paper PMC9233669.

The test system of one data set is biotinyl-Ile-oxazolone. Briefly: self-aminoacylation, catalytic enhancement (BIO) (fold over background); higher = more active; k-Seq, kA / k0A0; sequences stand for … in GGGAAUGGAUCCACAUCUACGAAUUC…UUCACUGCAGACUUGACGAAGCUG
The method in brief: (§1)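 Mutagenized RNA pools with a 21-nt variable region (0.43 μM) were reacted with each biotinyl-aminoacyl-oxazolone at 2–1250 μM for 90 minutes at room temperature, in 50 μL HEPES/NaCl/KCl/MgCl2/CaCl2 buffer containing 5% acetonitrile at pH 6.9–7.0. RNA captured on streptavidin was quantified by triplicate qPCR and by Illumina sequencing. The fraction reacted for each sequence was fit to a pseudo-first-order model with bootstrapping, and catalytic enhancement is the median kA divided by the uncatalyzed rate, taken as the low-activity peak of a bimodal Gaussian fit.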

The test system of the next data set is biotinyl-Val-oxazolone. Briefly: self-aminoacylation, catalytic enhancement (BVO) (fold over background); higher = more active; k-Seq, kA / k0A0; sequences stand for … in GGGAAUGGAUCCACAUCUACGAAUUC…UUCACUGCAGACUUGACGAAGCUG
The method, boiled down: as §1

A further data set deals with biotinyl-Met-oxazolone. Briefly: self-aminoacylation, catalytic enhancement (BMO) (fold over background); higher = more active; k-Seq, kA / k0A0; sequences stand for … in GGGAAUGGAUCCACAUCUACGAAUUC…UUCACUGCAGACUUGACGAAGCUG
The method, boiled down:
as §1

Variants at the background level are over-represented here.

Consider “AUGCACCUAGGUCAUCGAGUG [Fam2.2 aminoacylation ribozyme variant]”, for which the values for the self-aminoacylation in the data set on biotinyl-Ile-oxazolone and with biotinyl-Val-oxazolone were 2.61 and 2.56, respectively.
For “AUUACUCUGGUCAUCAAGUGA [Fam2.1 aminoacylation ribozyme variant]” the same measures were 1.69 and 1.64.
For the sequence “AUUCACCAAGGUCAUCGGAUG [Fam2.2 aminoacylation ribozyme variant]”, the self-aminoacylation with biotinyl-Ile-oxazolone was determined as 1.09; in the data set with biotinyl-Val-oxazolone, 1.17.
Take “GUUCACCUAGGUCAACGGGUG [Fam2.2 aminoacylation ribozyme variant]”: the self-aminoacylation in the data set on biotinyl-Ile-oxazolone stood at 1.94; in the data set with biotinyl-Val-oxazolone, 1.89.
For “AUUCACCUAGUUCAUCCGGUG [Fam2.2 aminoacylation ribozyme variant]” the same measures were 3.1 and 2.52.
Regarding “ACCUUUGCUAAUAGUCGCAAG [Fam3.1 aminoacylation ribozyme variant]”, the self-aminoacylation with biotinyl-Ile-oxazolone is 1.89; with biotinyl-Met-oxazolone, 1.97; in the data set with biotinyl-Val-oxazolone it was 1.49.
With “CCGCACUUCAAGCAAUCGGUU [Fam1B.1 aminoacylation ribozyme variant]”, the self-aminoacylation was 1.96 in the data set with biotinyl-Ile-oxazolone and 1.92 in the data set on biotinyl-Met-oxazolone.
Regarding “CUUCACCUAGAUCAUCGGGUG [Fam2.2 aminoacylation ribozyme variant]”, in the data set on biotinyl-Ile-oxazolone, the self-aminoacylation came out at 1.54.
As for “AUUUCCCUGGUCAUCGAAUGA [Fam2.1 aminoacylation ribozyme variant]”, the values for the self-aminoacylation with biotinyl-Ile-oxazolone and in the data set with biotinyl-Val-oxazolone were 1.09 and 1.12, respectively.
For “AUUACCCUCGUCAUGGAGUGA [Fam2.1 aminoacylation ribozyme variant]” the same measures were 1.84 and 1.84.
For “CCGCCCUUCAAGCAAUCGGUC [Fam1B.1 aminoacylation ribozyme variant]”, the self-aminoacylation in the data set on biotinyl-Ile-oxazolone was 1.51; in the data set on biotinyl-Met-oxazolone, 1.43.
As to “UUUCACCUAGGUAAUCGGGUG [Fam2.2 aminoacylation ribozyme variant]”, the self-aminoacylation in the data set with biotinyl-Val-oxazolone turned out to be 1.98.
Consider “CGUCUUCAAACAAUCGGUCUG [Fam1A.1 aminoacylation ribozyme variant]”, for which the figures for the self-aminoacylation in the data set on biotinyl-Ile-oxazolone, with biotinyl-Met-oxazolone and in the data set on biotinyl-Val-oxazolone were 1.32, 1.62 and 1.42, respectively.
For “AUUCACCUAGGUCAUCUGCUG [Fam2.2 aminoacylation ribozyme variant]” the same measures were 0.819, 0.724 and 0.81.
For “CCGCACUUCAAGCAAUCGGUC [Fam1B.1 aminoacylation ribozyme variant]” the same measures were 1.3, 1.37 and 1.69.
Turning to “AACUUUGCUAAUGGUCGCAAG [Fam3.1 aminoacylation ribozyme variant]”, the self-aminoacylation in the data set on biotinyl-Ile-oxazolone was found to be 2.47.
As to “CCUCUUCAAACAAUCGGUCUG [Fam1A.1 aminoacylation ribozyme variant]”, the self-aminoacylation was found to be 1.33 in the data set with biotinyl-Ile-oxazolone, 1.65 with biotinyl-Met-oxazolone and 1.2 in the data set with biotinyl-Val-oxazolone.
In the case of “AUAACCCUGGUCAUCGAGUAA [Fam2.1 aminoacylation ribozyme variant]”, the values for the self-aminoacylation in the data set with biotinyl-Ile-oxazolone and with biotinyl-Val-oxazolone were 1.95 and 1.77, respectively.
For the sequence “AUCACCCUGGUCAUCGAGGGA [Fam2.1 aminoacylation ribozyme variant]”, the self-aminoacylation in the data set with biotinyl-Ile-oxazolone came out at 1.47.
For the sequence “AGGUUUGCUAAUAGUCGUAAG [Fam3.1 aminoacylation ribozyme variant]”, the self-aminoacylation with biotinyl-Ile-oxazolone was 1.22; in the data set on biotinyl-Met-oxazolone it was 1.23; in the data set on biotinyl-Val-oxazolone, 1.08.
For “UCAGACUUCAAGCAAUCGGUC [Fam1B.1 aminoacylation ribozyme variant]” the same measures were 1.59, 1.9 and 1.74.
Consider “AGUCACCUAGGUCAUCUGGUG [Fam2.2 aminoacylation ribozyme variant]”, for which the figures for the self-aminoacylation in the data set on biotinyl-Ile-oxazolone and in the data set on biotinyl-Val-oxazolone were 1.91 and 1.57, respectively.
For “AUUACGCUCGUCAUCGAGUGA [Fam2.1 aminoacylation ribozyme variant]” the same measures were 1.65 and 1.69.
For “AAGUUUGCUAAUAGUCGCGUG [Fam3.1 aminoacylation ribozyme variant]” the same measures were 1.82 and 1.87.
As for “CCCCGCUUCAAGCAAUCGGUC [Fam1B.1 aminoacylation ribozyme variant]”, in the data set with biotinyl-Ile-oxazolone, the self-aminoacylation came to 1.96.
As for “CAACUUCAAACAAUCGGUCUU [Fam1A.1 aminoacylation ribozyme variant]”, the self-aminoacylation amounted to 1.59 in the data set with biotinyl-Ile-oxazolone and 1.5 with biotinyl-Val-oxazolone.
As to “CCACGCUUCAAGCAAUCCGUC [Fam1B.1 aminoacylation ribozyme variant]”, the self-aminoacylation in the data set with biotinyl-Ile-oxazolone came to 0.754; with biotinyl-Met-oxazolone it was 0.507; with biotinyl-Val-oxazolone it was 1.1.
Consider “AAGUUUGCCAAUAGUCGCAGG [Fam3.1 aminoacylation ribozyme variant]”, for which the self-aminoacylation with biotinyl-Ile-oxazolone came to 1.94.
As for “CUACUUCAAACAAUCGCUCCG [Fam1A.1 aminoacylation ribozyme variant]”, the self-aminoacylation worked out at 0.768 in the data set on biotinyl-Ile-oxazolone and 0.926 in the data set on biotinyl-Val-oxazolone.
Turning to “UUUCACCUAGGUCUUCGGGUG [Fam2.2 aminoacylation ribozyme variant]”, the self-aminoacylation in the data set with biotinyl-Ile-oxazolone was 4.04; in the data set on biotinyl-Met-oxazolone, 4.63; in the data set on biotinyl-Val-oxazolone it was 4.51.
For “CUACUUCAAGCAAUCGGUCUU [Fam1A.1 aminoacylation ribozyme variant]” the same measures were 1.07, 0.87 and 1.06.
In the case of “AUUUCCCUGGUCAUCGUGUGA [Fam2.1 aminoacylation ribozyme variant]”, the figures for the self-aminoacylation in the data set on biotinyl-Ile-oxazolone and in the data set on biotinyl-Val-oxazolone were 1.82 and 1.97, respectively.
As to “AUUACGCUGGUCAUCAAGUGA [Fam2.1 aminoacylation ribozyme variant]”, the results for the self-aminoacylation with biotinyl-Ile-oxazolone, in the data set with biotinyl-Met-oxazolone and in the data set on biotinyl-Val-oxazolone were 1.84, 2.63 and 1.8, respectively.
Regarding “AUCCACCUAGGUCCUCGGGUG [Fam2.2 aminoacylation ribozyme variant]”, the self-aminoacylation was 3.76 in the data set on biotinyl-Ile-oxazolone, 6.2 in the data set on biotinyl-Met-oxazolone and 4.71 with biotinyl-Val-oxazolone.
For “AUUCACAUACGUCAUCGGGUG [Fam2.2 aminoacylation ribozyme variant]” the same measures were 4.62, 7.22 and 4.19.
As for “AUUACCCUGGACAUCAAGUGA [Fam2.1 aminoacylation ribozyme variant]”, the self-aminoacylation with biotinyl-Ile-oxazolone is 1.38; with biotinyl-Val-oxazolone it was 1.85.
Turning to “CCCCACUUCAAGCAGUCGGUC [Fam1B.1 aminoacylation ribozyme variant]”, the self-aminoacylation in the data set on biotinyl-Ile-oxazolone came to 1.9; in the data set with biotinyl-Met-oxazolone, 1.77.
“UUACUUCAAACAAUCGGUCGG [Fam1A.1 aminoacylation ribozyme variant]”: the self-aminoacylation was 1.47 with biotinyl-Ile-oxazolone, 1.53 in the data set on biotinyl-Met-oxazolone and 1.43 in the data set on biotinyl-Val-oxazolone.
Regarding “UAGUUUGCUAAUAGUCGCUAG [Fam3.1 aminoacylation ribozyme variant]”, the self-aminoacylation with biotinyl-Ile-oxazolone came to 1.18; with biotinyl-Met-oxazolone, 1.01; in the data set on biotinyl-Val-oxazolone, 1.13.
Take “AUUCACCUAGGUUAUCGGGGG [Fam2.2 aminoacylation ribozyme variant]”: the self-aminoacylation in the data set on biotinyl-Ile-oxazolone came to 1.85; with biotinyl-Met-oxazolone it was 1.59.
Consider “AUUCACUUAGGUCAGCGGGUG [Fam2.2 aminoacylation ribozyme variant]”, for which the self-aminoacylation in the data set on biotinyl-Val-oxazolone was 1.98.
For “CUUCUUCAAACAACCGGUCUG [Fam1A.1 aminoacylation ribozyme variant]”, the self-aminoacylation was found to be 1.11 in the data set with biotinyl-Ile-oxazolone and 0.949 with biotinyl-Val-oxazolone.
Consider “AAGUUUGCUAAUAGACGCGAG [Fam3.1 aminoacylation ribozyme variant]”, for which the self-aminoacylation in the data set with biotinyl-Ile-oxazolone came out at 0.793; in the data set on biotinyl-Met-oxazolone, 0.912; with biotinyl-Val-oxazolone it was 0.64.
For “CAACUUCAAACAAGCGGUCUG [Fam1A.1 aminoacylation ribozyme variant]” the same measures were 1.42, 1.24 and 1.
As to “AAGAUUGCUAAUGGUCGCAAG [Fam3.1 aminoacylation ribozyme variant]”, in the data set on biotinyl-Ile-oxazolone, the self-aminoacylation amounted to 1.21.
In the case of “AAGUUCGCCAAUAGUCGCAAG [Fam3.1 aminoacylation ribozyme variant]”, the self-aminoacylation with biotinyl-Val-oxazolone stood at 1.76.
Regarding “CCAUGCUUCAAGCAAUCGGUC [Fam1B.1 aminoacylation ribozyme variant]”, the self-aminoacylation with biotinyl-Ile-oxazolone came to 1.34; in the data set on biotinyl-Met-oxazolone it was 1.54; with biotinyl-Val-oxazolone, 1.4.
For the sequence “AUUACCCUGGUAAUCGUGUGA [Fam2.1 aminoacylation ribozyme variant]”, the values for the self-aminoacylation in the data set with biotinyl-Ile-oxazolone and in the data set on biotinyl-Val-oxazolone were 1.69 and 1.85, respectively.
For the sequence “ACUACCCUGGUCAUCGAGGGA [Fam2.1 aminoacylation ribozyme variant]”, the self-aminoacylation in the data set with biotinyl-Val-oxazolone was 1.84.
Turning to “AUUCGCCUAGGUCAUCGAGUG [Fam2.2 aminoacylation ribozyme variant]”, the figures for the self-aminoacylation in the data set with biotinyl-Ile-oxazolone and with biotinyl-Val-oxazolone were 8.77 and 7.39, respectively.
